The values that follow come from patent publication US20080038235A1.

By UniProt entry, the sequences of proteins in these tests, tags left out. Residues count along the entry.
UniProt P54843, residues 171-370: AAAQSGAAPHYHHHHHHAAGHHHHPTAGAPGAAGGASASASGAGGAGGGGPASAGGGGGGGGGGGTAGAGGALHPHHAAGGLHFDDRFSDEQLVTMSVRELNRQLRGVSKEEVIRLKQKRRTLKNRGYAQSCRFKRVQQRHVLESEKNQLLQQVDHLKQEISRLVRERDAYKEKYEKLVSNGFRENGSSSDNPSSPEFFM

Assay [1] has as its target T1, recombinant NF-ATp containing the Rel domain of murine NF-ATp (in vitro translated from TP7-NF-ATp) (murine) (UniProt Q60591).
T1 sequence (looked up): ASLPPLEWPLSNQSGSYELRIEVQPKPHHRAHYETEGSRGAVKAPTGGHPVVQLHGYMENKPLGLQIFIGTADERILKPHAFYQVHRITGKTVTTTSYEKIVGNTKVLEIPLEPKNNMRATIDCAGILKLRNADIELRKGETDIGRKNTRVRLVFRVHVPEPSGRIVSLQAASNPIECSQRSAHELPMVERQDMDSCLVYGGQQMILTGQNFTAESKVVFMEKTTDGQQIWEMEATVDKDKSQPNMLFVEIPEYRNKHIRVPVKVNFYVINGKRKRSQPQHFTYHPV
The assay can be described thus: EMSA (legend of FIG. 6). Background: Mobility shift assays separate free from complexed probe on a gel.

Assay [2] addresses T1, recombinant NF-ATp containing the Rel domain of murine NF-ATp (in vitro translated from TP7-NF-ATp) (murine). The assay can be described thus: EMSA with the 33 bp IL-4 promoter oligonucleotide (NF-AT and MARE sites).

These are yes or no findings as the source states them, for the method shown. Some results given as binding are weak or reduced against the parent protein; the word gives no strength.

For “truncated c-Maf recombinant protein containing the b-zip domain (amino acids 171-371) (from UniProt P54843 171-370)”, the binding entry in assay [1] and in assay [2] was “binds” in each case.
